Measured values from patent publication US7528229B2 (National Research Council of Canada, priority 1996, dated 2009).
For at least one compound, name, drawing or mass did not settle the structure.

Sequences of proteins named here, by UniProt entry; tags and fusion partners are left off. A change or cut given only in a name is not applied to a line headed by its entry.
UniProt O08726: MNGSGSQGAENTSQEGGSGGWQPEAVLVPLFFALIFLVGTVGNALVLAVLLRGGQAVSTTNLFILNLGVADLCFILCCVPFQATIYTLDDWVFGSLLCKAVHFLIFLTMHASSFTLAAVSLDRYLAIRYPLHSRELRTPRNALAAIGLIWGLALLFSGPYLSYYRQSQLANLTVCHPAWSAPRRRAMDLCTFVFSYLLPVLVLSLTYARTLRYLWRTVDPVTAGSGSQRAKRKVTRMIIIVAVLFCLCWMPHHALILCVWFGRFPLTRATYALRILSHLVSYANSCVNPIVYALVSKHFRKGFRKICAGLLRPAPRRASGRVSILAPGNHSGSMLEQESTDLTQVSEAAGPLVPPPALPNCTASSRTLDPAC

Target: T1, rat GAL-R2 (Rattus norvegicus, UniProt O08726, G17S)
T1 construct: expressed in transfected cells; also transient
T1 sequence (O08726 1-372 G17S): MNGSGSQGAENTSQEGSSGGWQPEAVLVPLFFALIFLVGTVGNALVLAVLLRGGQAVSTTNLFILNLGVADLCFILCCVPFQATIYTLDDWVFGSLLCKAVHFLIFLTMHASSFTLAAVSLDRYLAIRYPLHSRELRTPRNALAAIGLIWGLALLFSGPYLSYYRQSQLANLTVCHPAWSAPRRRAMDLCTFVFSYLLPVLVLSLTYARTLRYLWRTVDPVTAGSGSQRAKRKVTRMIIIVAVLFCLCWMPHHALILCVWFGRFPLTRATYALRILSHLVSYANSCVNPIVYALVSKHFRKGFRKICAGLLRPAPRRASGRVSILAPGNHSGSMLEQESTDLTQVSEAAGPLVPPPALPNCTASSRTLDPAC
Assay: Inhibition of forskolin-stimulated cAMP accumulation in HEK-293 cells expressing GAL-R2
Format: cell-based
Settings: 0.1 mM forskolin, various concentrations of galanin, 10 minutes at 37 C., 1 mM IBMX

In the case of `CC(C)C[C@H](NC(=O)CNC(=O)[C@H](CC(N)=O)NC(=O)[C@H](CCCCN)NC(=O)[C@H](CC(=O)O)NC(=O)[C@H](CO)NC(=O)[C@H](Cc1ccccc1)NC(=O)[C@H](CO)NC(=O)[C@H](CCCNC(=N)N)NC(=O)[C@H](Cc1c[nH]cn1)NC(=O)[C@H](CC(N)=O)NC(=O)CNC(=O)[C@@H](NC(=O)[C@H](C)NC(=O)[C@H](Cc1c[nH]cn1)NC(=O)[C@@H]1CCCN1C(=O)CNC(=O)[C@H](CC(C)C)NC(=O)[C@H](CC(C)C)NC(=O)[C@H](Cc1ccc(O)cc1)NC(=O)CNC(=O)[C@H](C)NC(=O)[C@H](CO)NC(=O)[C@H](CC(N)=O)NC(=O)[C@H](CC(C)C)NC(=O)[C@@H](NC(=O)[C@H](Cc1c[nH]c2ccccc12)NC(=O)CN)[C@@H](C)O)C(C)C)C(=O)N[C@H](C(=O)N[C@@H](CO)C(=O)O)[C@@H](C)O` [Galanin], the “effect on stimulation of adenyl cyclase (cAMP) by forskolin” value was “attenuated the stimulation of adenyl cyclase by forskolin in a dose-dependent manner”.
